In article PMC11014987:

How the values were obtained:
Assay in all cases: two-hybrid; yeast Y2H-Gold, Gal4 system (pGBKT7 / pGADT7-AD); growth on SD -Leu -Trp -His -Ala, 30 °C, 3 days; three independent clones
[1] = target: slr1020 (yeast two-hybrid fusion) (Synechocystis sp. PCC 6803)
[2] = target: SdhB1 with mutation of Cys214 (yeast two-hybrid fusion) (Synechocystis sp. PCC 6803) (UniProt P73723)
[3] = target: SdhA, flavoprotein subunit of succinate dehydrogenase (yeast two-hybrid fusion) (Synechocystis sp. PCC 6803)
[4] = target: HdrB (also referred to as SdhEE) (yeast two-hybrid fusion) (Synechocystis sp. PCC 6803)
[5] = target: sll1946 (yeast two-hybrid fusion) (Synechocystis sp. PCC 6803)
[6] = target: SdhB2 (sll0823) (yeast two-hybrid fusion) (Synechocystis sp. PCC 6803) (UniProt Q55431)

binding [1]: no binding
binding [2]: no binding
binding [3]: no binding
binding [4]: no binding
binding [5]: no binding
binding [6]: binds
B1: Dri1 (yeast two-hybrid fusion) (protein, UniProt P73129 1-96)
chain: MADPLTPAISDRICKHMNEDHASAIALYAQVFGQQTDVTMAQMQAIDPTGMDLVVESEGGSKTIRIEFEQPLKDSEDAHQVLIAMAKQARSVGKNS

These are yes or no findings as the source states them, for the method shown. For part of these data: A result given as binding can be weak or reduced; the word gives no strength. Where a sequence is shown, tags or fusion partners need not be part of it.
